From article PMC3922604

The chains behind the UniProt entries cited, without tags or fusion partners. Where a name states a change or a piece, a line headed by the entry shows the natural chain unless it says otherwise. Residues count along the entry.
UniProt P02787, residues 20-698: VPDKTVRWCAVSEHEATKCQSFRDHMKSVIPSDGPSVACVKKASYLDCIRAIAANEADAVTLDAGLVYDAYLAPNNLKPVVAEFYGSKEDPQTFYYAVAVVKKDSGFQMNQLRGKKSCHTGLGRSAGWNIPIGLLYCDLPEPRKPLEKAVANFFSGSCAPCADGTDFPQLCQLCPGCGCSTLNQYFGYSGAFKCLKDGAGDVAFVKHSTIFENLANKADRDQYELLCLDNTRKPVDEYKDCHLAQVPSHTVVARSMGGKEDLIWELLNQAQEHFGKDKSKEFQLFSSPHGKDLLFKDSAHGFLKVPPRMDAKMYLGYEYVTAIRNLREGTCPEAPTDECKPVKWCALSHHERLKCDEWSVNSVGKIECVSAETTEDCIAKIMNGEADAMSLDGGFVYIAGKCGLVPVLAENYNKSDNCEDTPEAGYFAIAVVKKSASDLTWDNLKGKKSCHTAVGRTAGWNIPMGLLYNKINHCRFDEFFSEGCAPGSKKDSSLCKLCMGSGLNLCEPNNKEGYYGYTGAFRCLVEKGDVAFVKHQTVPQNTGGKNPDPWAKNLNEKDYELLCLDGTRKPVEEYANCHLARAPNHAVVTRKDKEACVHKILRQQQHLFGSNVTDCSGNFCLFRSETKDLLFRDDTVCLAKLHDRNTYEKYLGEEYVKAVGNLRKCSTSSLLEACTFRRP
UniProt P02760: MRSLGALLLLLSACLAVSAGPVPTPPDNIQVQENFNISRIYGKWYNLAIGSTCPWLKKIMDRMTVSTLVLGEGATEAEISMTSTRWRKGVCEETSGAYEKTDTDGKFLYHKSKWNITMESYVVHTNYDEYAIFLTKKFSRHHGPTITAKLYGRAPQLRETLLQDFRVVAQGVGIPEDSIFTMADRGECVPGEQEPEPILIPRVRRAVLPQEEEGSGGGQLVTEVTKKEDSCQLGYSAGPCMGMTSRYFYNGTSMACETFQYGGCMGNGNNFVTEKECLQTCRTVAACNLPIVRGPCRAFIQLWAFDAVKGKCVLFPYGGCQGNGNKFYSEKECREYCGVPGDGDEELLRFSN
UniProt P15924: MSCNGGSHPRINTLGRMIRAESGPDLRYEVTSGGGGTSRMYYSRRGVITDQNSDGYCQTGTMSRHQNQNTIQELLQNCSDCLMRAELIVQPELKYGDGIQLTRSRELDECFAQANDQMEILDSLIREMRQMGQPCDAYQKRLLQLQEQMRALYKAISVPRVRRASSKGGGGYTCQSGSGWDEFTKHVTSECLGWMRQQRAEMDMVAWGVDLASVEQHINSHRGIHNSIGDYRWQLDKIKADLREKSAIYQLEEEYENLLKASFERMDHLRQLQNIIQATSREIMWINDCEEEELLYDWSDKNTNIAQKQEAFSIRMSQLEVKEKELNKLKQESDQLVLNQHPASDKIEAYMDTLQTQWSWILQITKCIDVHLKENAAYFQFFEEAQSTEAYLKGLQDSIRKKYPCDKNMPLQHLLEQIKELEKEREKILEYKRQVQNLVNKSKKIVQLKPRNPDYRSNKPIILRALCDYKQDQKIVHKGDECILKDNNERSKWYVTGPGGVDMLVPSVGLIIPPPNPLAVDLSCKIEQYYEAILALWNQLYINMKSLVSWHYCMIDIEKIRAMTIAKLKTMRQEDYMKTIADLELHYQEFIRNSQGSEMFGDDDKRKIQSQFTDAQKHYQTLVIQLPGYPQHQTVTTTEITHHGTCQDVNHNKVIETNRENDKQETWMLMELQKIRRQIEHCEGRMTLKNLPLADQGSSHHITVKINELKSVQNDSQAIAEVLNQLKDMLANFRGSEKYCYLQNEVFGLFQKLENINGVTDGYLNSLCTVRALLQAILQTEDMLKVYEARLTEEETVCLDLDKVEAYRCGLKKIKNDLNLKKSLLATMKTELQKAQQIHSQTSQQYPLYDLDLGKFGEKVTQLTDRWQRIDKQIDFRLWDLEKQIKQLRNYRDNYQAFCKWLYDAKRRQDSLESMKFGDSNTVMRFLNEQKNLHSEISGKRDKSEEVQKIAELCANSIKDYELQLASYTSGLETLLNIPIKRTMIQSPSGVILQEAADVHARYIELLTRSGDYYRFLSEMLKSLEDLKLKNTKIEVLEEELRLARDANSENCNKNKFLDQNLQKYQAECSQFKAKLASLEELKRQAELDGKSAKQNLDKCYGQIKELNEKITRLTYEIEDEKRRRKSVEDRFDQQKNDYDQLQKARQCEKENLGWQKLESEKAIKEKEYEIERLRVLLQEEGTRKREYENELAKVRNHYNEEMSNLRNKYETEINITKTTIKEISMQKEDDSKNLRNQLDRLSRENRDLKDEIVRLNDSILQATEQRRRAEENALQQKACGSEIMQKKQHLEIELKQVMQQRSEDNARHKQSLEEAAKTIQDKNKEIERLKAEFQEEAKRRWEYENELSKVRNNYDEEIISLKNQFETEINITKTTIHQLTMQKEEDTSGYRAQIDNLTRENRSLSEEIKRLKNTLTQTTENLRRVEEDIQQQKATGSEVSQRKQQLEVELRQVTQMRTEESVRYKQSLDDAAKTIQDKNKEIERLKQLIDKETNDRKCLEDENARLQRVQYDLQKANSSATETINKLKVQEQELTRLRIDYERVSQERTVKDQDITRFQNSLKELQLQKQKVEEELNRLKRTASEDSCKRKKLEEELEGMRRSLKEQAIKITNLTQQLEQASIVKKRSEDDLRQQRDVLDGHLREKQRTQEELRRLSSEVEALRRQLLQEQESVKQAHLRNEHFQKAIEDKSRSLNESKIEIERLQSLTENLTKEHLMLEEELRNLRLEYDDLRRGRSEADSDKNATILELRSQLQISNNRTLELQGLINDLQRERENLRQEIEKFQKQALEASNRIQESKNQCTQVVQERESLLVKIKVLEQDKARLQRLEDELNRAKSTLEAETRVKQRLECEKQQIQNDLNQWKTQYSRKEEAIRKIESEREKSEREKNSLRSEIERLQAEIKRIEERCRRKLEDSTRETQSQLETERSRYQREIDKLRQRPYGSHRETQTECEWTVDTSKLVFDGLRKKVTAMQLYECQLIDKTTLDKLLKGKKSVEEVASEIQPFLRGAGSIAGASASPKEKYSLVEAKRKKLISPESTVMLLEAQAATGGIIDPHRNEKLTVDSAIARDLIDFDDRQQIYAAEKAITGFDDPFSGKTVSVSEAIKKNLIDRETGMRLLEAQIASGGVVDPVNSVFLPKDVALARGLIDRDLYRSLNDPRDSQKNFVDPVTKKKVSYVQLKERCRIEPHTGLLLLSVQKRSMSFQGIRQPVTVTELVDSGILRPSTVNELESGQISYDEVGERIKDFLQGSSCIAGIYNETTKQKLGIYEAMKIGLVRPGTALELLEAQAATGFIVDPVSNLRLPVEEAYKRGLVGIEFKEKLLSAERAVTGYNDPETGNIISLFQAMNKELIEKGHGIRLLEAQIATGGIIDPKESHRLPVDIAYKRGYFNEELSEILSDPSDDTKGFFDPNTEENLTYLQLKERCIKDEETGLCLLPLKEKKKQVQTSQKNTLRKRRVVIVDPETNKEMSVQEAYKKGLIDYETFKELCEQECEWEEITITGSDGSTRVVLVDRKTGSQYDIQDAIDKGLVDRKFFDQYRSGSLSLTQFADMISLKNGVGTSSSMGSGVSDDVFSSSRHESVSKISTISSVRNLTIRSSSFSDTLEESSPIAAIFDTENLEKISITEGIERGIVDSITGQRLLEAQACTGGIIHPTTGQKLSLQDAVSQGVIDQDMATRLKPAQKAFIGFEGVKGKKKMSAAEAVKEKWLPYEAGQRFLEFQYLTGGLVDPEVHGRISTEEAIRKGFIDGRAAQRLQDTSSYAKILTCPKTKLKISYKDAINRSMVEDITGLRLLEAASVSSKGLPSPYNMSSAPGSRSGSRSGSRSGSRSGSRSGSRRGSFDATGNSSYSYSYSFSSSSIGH
UniProt P02679, residues 27-453: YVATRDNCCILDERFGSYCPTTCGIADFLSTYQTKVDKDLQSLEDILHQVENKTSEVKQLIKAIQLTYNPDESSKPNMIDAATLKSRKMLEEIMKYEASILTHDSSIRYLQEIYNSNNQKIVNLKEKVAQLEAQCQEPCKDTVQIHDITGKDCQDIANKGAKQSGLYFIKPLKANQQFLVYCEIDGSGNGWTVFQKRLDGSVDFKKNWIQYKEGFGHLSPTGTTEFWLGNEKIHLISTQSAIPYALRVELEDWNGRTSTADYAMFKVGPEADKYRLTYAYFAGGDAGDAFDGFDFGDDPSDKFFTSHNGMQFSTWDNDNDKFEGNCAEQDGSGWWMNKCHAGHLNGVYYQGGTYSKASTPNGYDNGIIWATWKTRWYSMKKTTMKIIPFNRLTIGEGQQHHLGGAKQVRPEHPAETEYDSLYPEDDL
UniProt P02730: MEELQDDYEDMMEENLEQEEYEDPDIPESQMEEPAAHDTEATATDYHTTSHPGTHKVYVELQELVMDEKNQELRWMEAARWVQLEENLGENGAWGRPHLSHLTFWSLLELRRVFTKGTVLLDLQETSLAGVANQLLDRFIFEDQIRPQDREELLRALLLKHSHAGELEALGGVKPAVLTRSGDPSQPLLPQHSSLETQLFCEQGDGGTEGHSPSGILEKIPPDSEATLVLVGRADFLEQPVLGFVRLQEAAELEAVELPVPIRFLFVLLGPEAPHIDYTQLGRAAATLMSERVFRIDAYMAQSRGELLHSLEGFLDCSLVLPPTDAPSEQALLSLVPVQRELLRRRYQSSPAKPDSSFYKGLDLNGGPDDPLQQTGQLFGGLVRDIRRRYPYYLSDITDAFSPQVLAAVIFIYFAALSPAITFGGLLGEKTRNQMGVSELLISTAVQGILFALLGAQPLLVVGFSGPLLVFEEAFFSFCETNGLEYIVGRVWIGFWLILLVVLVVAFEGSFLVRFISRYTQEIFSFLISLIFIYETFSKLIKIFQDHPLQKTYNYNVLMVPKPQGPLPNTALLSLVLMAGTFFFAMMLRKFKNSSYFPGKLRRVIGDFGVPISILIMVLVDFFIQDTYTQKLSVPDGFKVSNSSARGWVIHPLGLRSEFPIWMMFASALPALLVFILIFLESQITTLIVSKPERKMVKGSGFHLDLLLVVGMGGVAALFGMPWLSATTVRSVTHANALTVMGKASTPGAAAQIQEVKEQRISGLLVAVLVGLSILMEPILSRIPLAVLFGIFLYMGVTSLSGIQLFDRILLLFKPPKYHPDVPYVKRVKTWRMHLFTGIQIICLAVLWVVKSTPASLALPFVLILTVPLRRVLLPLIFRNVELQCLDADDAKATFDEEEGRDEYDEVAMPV
UniProt P25311, residues 21-298: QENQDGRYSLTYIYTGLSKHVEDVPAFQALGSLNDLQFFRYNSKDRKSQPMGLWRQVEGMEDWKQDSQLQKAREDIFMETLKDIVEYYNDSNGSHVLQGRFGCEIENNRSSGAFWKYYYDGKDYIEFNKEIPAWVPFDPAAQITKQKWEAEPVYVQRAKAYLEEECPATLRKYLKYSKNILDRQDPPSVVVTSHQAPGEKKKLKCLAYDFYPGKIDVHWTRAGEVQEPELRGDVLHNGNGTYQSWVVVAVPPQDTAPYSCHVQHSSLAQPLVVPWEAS
UniProt P47929: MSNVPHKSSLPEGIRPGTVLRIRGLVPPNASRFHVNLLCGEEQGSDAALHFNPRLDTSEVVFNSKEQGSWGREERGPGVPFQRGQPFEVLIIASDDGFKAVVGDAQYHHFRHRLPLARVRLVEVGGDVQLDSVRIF
UniProt P05090, residues 21-189: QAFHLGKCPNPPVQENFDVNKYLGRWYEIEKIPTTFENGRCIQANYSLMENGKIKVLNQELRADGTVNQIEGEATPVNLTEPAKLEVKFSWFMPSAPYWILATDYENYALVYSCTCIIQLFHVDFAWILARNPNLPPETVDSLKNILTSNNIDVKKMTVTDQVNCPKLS
UniProt Q01469: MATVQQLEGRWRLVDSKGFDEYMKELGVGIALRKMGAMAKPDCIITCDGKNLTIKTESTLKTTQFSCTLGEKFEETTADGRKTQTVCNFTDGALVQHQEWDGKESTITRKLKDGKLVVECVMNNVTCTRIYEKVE

molecular target: albumin (human (endogenous in blood)) (UniProt P02768); assay: cross-linking + affinity purification with mass spectrometry; fresh human blood cross-linked 5 s in 10% formaldehyde, quenched with 4 M Tris; immunoprecipitation with anti-human serum albumin antibody and Protein A + G agarose, washed with PBS; 4-12% SDS-PAGE, six unstained slices above 70 kDa, LC-MS/MS; control: cross-linked sample without antibody

For “transferrin (from UniProt P02787 20-698)”, which binding is on record?
Its binding is “no binding”.

For “AMBP, alpha-1-microglobulin/bikunin precursor (from UniProt P02760)”, which binding is on record?
The binding was “binds”.

Which binding does the source give for DESP_HUMAN (from UniProt P15924 1-2871) here?
Its binding is “binds”.

With FIBG_HUMAN (from UniProt P02679 27-453) as the substance, how does the binding read?
Its binding is “binds”.

For B3AT_HUMAN (from UniProt P02730 1-911), which binding is on record?
The binding was “binds”.

For ZA2G_HUMAN (from UniProt P25311 21-298), which binding is on record?
The binding was “binds”.

With LEG7_HUMAN (from UniProt P47929 1-136) as the substance, how does the binding read?
The binding was “binds”.

For “complement C3 (from UniProt P01024 23-1663)”, which binding is on record?
The binding was “binds”.

Which binding does the source give for APOD_HUMAN (from UniProt P05090 21-189) here?
Its binding is “binds”.

Which binding does the source give for FABP5_HUMAN (from UniProt Q01469 1-135) here?
Its binding is “binds”.

How did the binding turn out when “IGLL5_HUMAN (from UniProt B9A064 36-214)” was run?
Its binding is “binds”.

No constants are given. Whether binding was seen depends on the method and setting. Binding seen in cells or lysates may run through a third protein. These calls come from enrichment with a bait or labelling near it, and not all partners need be listed. No binding means not detected with the bait.
